{"source": "PubChem BioAssay AID504834", "about": "(National Center for Advancing Translational Sciences (NCATS), 2011)", "note": "The whole screen tested about 320,000 compounds, of which about 22,000 (6.9%) were called active. Inconclusive results, whose numbers are uncertain, are shown with a selection of clear calls. The call rests on the fitted dose curve; in most records, active means well fitted inhibition curve with a large enough effect; inconclusive means small, poorly fitted or top-dose-only effect, or another doubt; inactive means no such curve, though single readings can be large or run the other way. A potency beside an inconclusive call is a rough fit, not a confirmed value. On the % scale 0 is the no-effect control and ±100 the full control effect; potency means the concentration at half of the fitted maximal effect.", "data": [{"test": "Primary qHTS for delayed death inhibitors of the malarial parasite plastid, 96 hour incubation", "conditions": "P. falciparum luciferase reporter growth; series mostly up to 28.7 µM; activity change, negative = inhibition: at the top concentration", "outline": "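Infected RBCs, 2% Hct / 0.05% parasitemia final; luciferase-reporter P. falciparum; cpd 96 h, 37 C, 5% CO2; luciferase detection reagent; luminescence.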", "values": [{"smiles": "Cc1ccc(C(=O)Nc2nc(-c3ccccn3)cs2)cc1S(=O)(=O)N1CCOCC1", "Potency": "active: 0.465 µM"}, {"smiles": "COc1cccc(-c2nn(-c3ccccc3)cc2C(=O)Nc2nccs2)c1", "Potency": "inconclusive: 5.86 µM [inhibitor, partial curve]"}, {"smiles": "COc1cc(C)nc(Nc2nc(C)c(C(C)=O)s2)n1", "Potency": "inconclusive: 18.5 µM [inhibitor, single point]"}, {"smiles": "Cc1cc(C)nc(NC(=O)/C=C/c2ccc3c(c2)OCO3)c1", "activity change, negative = inhibition": "inactive: 195%"}, {"smiles": "O=C(CC(CC(=O)c1ccccc1)C(=O)O)c1ccccc1", "activity change, negative = inhibition": "inactive: 11%"}, {"smiles": "COc1cc(OC)c(NC(=O)CCCNC(=O)Cn2cnc3sc(C)c(C)c3c2=O)cc1Cl", "activity change, negative = inhibition": "inactive: -12.8%"}, {"smiles": "CCOC(=O)CN1C(=O)S/C(=C/c2ccc(O)c([N+](=O)[O-])c2)C1=O", "Potency": "inconclusive: 13.1 µM [inhibitor, single point]"}, {"smiles": "COC(=O)C1=CN(c2ccc(F)cc2)C=C(C(=O)OC)C1c1cccc([N+](=O)[O-])c1", "activity change, negative = inhibition": "inactive: 100%"}, {"smiles": "CCOc1ccc(S(=O)(=O)N2CCOCC2)cc1[N+](=O)[O-]", "activity change, negative = inhibition": "inactive: -0.117%"}, {"smiles": "CCCCn1c(N)c(N(Cc2ccccc2OC)C(=O)CSCC(=O)Nc2cccc(C)c2)c(=O)[nH]c1=O", "Potency": "inconclusive: 18.5 µM [inhibitor, single point]"}, {"smiles": "CC(=O)c1sc(NC(=O)c2ccc(F)c(S(=O)(=O)N3CCOCC3)c2)nc1C", "Potency": "inconclusive: 11.7 µM [inhibitor, single point]"}, {"smiles": "Cc1ccc(-n2c(N)cc(=O)nc2SCC(=O)N2CCN(c3ccccc3)CC2)cc1C", "Potency": "inconclusive: 10.4 µM [inhibitor, single point]"}, {"smiles": "O=[N+]([O-])c1ccccc1COc1ccc(Cl)c2cccnc12", "activity change, negative = inhibition": "inactive: 16.5%"}, {"smiles": "COc1cc(/C=C/C(=O)NCCc2ccc(S(N)(=O)=O)cc2)ccc1OCC#N", "Potency": "active: 11.7 µM"}, {"smiles": "CN(C)CC/C=C1\\c2ccccc2Sc2ccc(Cl)cc21", "Potency": "active: 13.5 µM"}, {"smiles": "CC1CCCCN1C(=S)NC(=O)c1cccs1", "note": "(stereo not given)", "Potency": "inconclusive: 14.7 µM [inhibitor, single point]"}, {"smiles": "COc1cccc(OCc2cc(C(=O)NCCc3cccc(C)n3)no2)c1", "Potency": "inconclusive: 2.08 µM [inhibitor, full curve, poor fit]"}, {"smiles": "Cc1cc(=O)c(C(=O)O)nn1-c1ccc(Cl)cc1", "activity change, negative = inhibition": "inactive: 101%"}, {"smiles": "COc1ccc(C(CNC(=S)NCc2ccccc2)N2CCCC2)cc1", "note": "(stereo not given)", "Potency": "inconclusive: 18.5 µM [inhibitor, single point]"}, {"smiles": "Cc1ccc(C)c(NC(=O)CCN2CC(C)CC(C)C2)c1", "note": "(stereo not given)", "Potency": "inconclusive: 11.7 µM [inhibitor, single point]"}, {"smiles": "Nc1ccc(N2CCCCCC2)cc1", "Potency": "inconclusive: 18.5 µM [inhibitor, single point]"}, {"smiles": "COc1cc(/C=N/NC(=S)Nc2cccc(Cl)c2C)ccc1OCC(=O)N1CC(C)OC(C)C1", "note": "(stereo not given)", "Potency": "inconclusive: 10.4 µM [inhibitor, partial curve, poor fit]"}, {"smiles": "Fc1ccc(CSc2nnc(-c3cccnc3)n2Cc2ccco2)cc1", "Potency": "inconclusive: 16.5 µM [inhibitor, single point]"}, {"smiles": "CC(C)(C)n1nnnc1C(c1cccnc1)N1CCN(C(=O)c2ccco2)CC1", "note": "(stereo not given)", "Potency": "inconclusive: 3.29 µM [inhibitor, partial curve, poor fit]"}, {"smiles": "COc1cc(CC(NC(C)=O)C(=O)NC2CCN(C(=O)Nc3ccc(C)cc3)CC2)cc(OC)c1", "note": "(stereo not given)", "activity change, negative = inhibition": "inactive: 2.49%"}, {"smiles": "COc1ccc(OC)c(NC(=O)Cn2c(=O)oc3ccccc32)c1", "Potency": "inconclusive: 18.5 µM [inhibitor, single point]"}, {"smiles": "N#Cc1ccc(N2CCNCC2)c(F)c1", "Potency": "inconclusive: 11.7 µM [inhibitor, single point]"}, {"smiles": "CSCC[C@H](NC(=O)OC(C)(C)C)C(=O)N1CCC(C(=O)N[C@@H](Cc2c[nH]c3ccccc23)C(=O)O)CC1", "Potency": "inconclusive: 11.7 µM [inhibitor, partial curve]"}, {"smiles": "N#CC(C(=O)OC1CCCCC1)c1nc2ccccc2nc1N1CCOCC1", "note": "(stereo not given)", "activity change, negative = inhibition": "inactive: 31.1% [at 5.75 µM]"}, {"smiles": "CCC(=O)c1ccc(/C=C/c2nc3ccccc3n2C)o1", "Potency": "inconclusive: 11.7 µM [inhibitor, single point]"}, {"smiles": "Cc1ccc(C(=O)N/C(=C\\c2sccc2C)C(=O)NCCCN2CCOCC2)cc1", "Potency": "inconclusive: 10.4 µM [inhibitor, single point]"}, {"smiles": "Cc1csc2nc(O)c(C(=O)NCCC3=CCCCC3)c(=O)n12", "Potency": "inconclusive: 4.65 µM [inhibitor, partial curve, poor fit]"}, {"smiles": "Cc1nnsc1C(=O)NC1CCCc2c1cnn2-c1cc(F)cc(F)c1", "note": "(stereo not given)", "activity change, negative = inhibition": "inactive: 50.3%"}, {"smiles": "N=C1SC(c2ccccc2)C(=O)N1c1ncc(Cc2ccccc2Cl)s1", "note": "(stereo not given)", "Potency": "inconclusive: 5.22 µM [inhibitor, partial curve]"}, {"smiles": "Cc1ccc(C(=O)N2CC3(C(C)C)CN(C(=O)c4ccc(C)cc4)CC(C(C)C)(C2)C3=O)cc1", "Potency": "active: 9.28 µM"}, {"smiles": "CCn1nnnc1NCc1ccc(OCc2c(F)cccc2Cl)c(OC)c1", "activity change, negative = inhibition": "inactive: -25.6%"}, {"smiles": "c1ccc(-c2ccc(C3=Nn4c(Cn5nnc6ccccc65)nnc4SC3)cc2)cc1", "Potency": "active: 9.28 µM"}, {"smiles": "Cc1nc2ccccc2c(=O)n1-c1ccc(Br)cn1", "activity change, negative = inhibition": "inactive: 77.4%"}, {"smiles": "CC1=NN(c2ccccc2)C(=O)C1N=Nc1ccc(C)cc1", "note": "(stereo not given)", "Potency": "active: 10.4 µM"}, {"smiles": "Cc1ccc(C)c(NCc2ccccc2CO)c1", "activity change, negative = inhibition": "inactive: 17.2%"}, {"smiles": "CCCCCCC(=O)Nc1c(O)c2ccccc2[nH]c1=O", "Potency": "inconclusive: 10.4 µM [inhibitor, partial curve, poor fit]"}, {"smiles": "COc1cc(NC(=O)CSc2nc3ncnc(N)c3[nH]2)c(C(=O)O)cc1OC", "activity change, negative = inhibition": "inactive: 13.6%"}, {"smiles": "CCN1CCN(C/C(C)=C/c2ccccc2)CC1", "Potency": "inconclusive: 18.5 µM [inhibitor, single point]"}, {"smiles": "COc1ccc(C=C2C(=O)N(C)C(=O)N(C)C2=O)cc1COc1ccc(NC(C)=O)cc1", "Potency": "inconclusive: 0.0029 µM [inhibitor, full curve, poor fit]"}, {"smiles": "CC(=O)N1c2ccc(S(=O)(=O)NCCC(=O)Nc3ccc(C)c(F)c3)cc2CC1C", "note": "(stereo not given)", "activity change, negative = inhibition": "inactive: -4.1%"}, {"smiles": "COc1ccccc1CNS(=O)(=O)c1ccc2c(c1)oc(=O)n2C", "activity change, negative = inhibition": "inactive: 33.7%"}, {"smiles": "Cc1cc2oc(=O)cc(CN3CCC(C)CC3)c2cc1C", "Potency": "inconclusive: 18.5 µM [inhibitor, single point]"}, {"smiles": "COc1ccc(CN(C)C(=O)CCl)cc1", "Potency": "active: 10.4 µM"}, {"smiles": "COc1cccc(CNCCc2cccc(F)c2)c1OC", "Potency": "active: 4.15 µM"}, {"smiles": "O=C1CCNCCN1[C@H](CO)Cc1ccccc1", "activity change, negative = inhibition": "inactive: -16.3%"}, {"smiles": "CC(C)CCNCC(O)CON=C1c2ccccc2-c2ccccc21", "note": "(stereo not given)", "Potency": "inconclusive: 3.7 µM [inhibitor, full curve, poor fit]"}, {"smiles": "CC(C)(C)C(=O)OC/C(N)=N/OC(=O)c1ccccc1", "Potency": "inconclusive: 11.7 µM [inhibitor, partial curve]"}, {"smiles": "CNC(=O)CCc1nc(-c2ccc(C(C)(C)C)cc2)no1", "Potency": "inconclusive: 1.65 µM [inhibitor, full curve]"}, {"smiles": "O=C(N/C(=C\\c1ccc(Br)cc1)C(=O)N1CCCC1)c1ccccc1F", "Potency": "inconclusive: 0.0026 µM [inhibitor, full curve, poor fit]"}, {"smiles": "Cn1cc(C(=O)N/N=C/c2cccs2)c2ccccc21", "Potency": "inconclusive: 8.28 µM [inhibitor, partial curve, poor fit]"}, {"smiles": "Cc1ccc(C)c(-c2nnc(OCC(=O)Nc3cc(C)on3)c3ccccc23)c1", "Potency": "inconclusive: 11.7 µM [inhibitor, single point]"}, {"smiles": "CC1CCCCN1S(=O)(=O)c1ccc(NC(=O)c2ccco2)cc1", "note": "(stereo not given)", "Potency": "active: 13.1 µM"}, {"smiles": "COc1ccc(NC(=O)CC2C(=O)N(c3ccc(F)cc3)C(=S)N2NC(=O)c2ccccc2)cc1", "note": "(stereo not given)", "Potency": "inconclusive: 10.4 µM [inhibitor, partial curve, poor fit]"}, {"smiles": "CC(Oc1ccc2oc3ccccc3c2c1)C(=O)NC12CC3CC(CC(C3)C1)C2", "note": "(stereo not given)", "Potency": "inconclusive: 18.5 µM [inhibitor, single point]"}, {"smiles": "O=S(=O)(c1ccc(F)cc1)N1CCN(Cc2cc3c(cc2Br)OCCO3)CC1", "Potency": "inconclusive: 18.5 µM [inhibitor, single point]"}, {"smiles": "CCN(CC)S(=O)(=O)c1cccc(NC(=O)c2cc3ccccc3o2)c1", "Potency": "inconclusive: 0.0415 µM [inhibitor, full curve, poor fit]"}, {"smiles": "O=C(O)CCCC(=O)N1N=C(c2c(-c3ccccc3)c3cc(Cl)ccc3[nH]c2=O)CC1c1cccs1", "note": "(stereo not given)", "Potency": "inconclusive: 11.7 µM [inhibitor, single point]"}, {"smiles": "Cc1ccc2[nH]c(O)c(N=NC(N)=S)c2c1", "Potency": "inconclusive: 11.7 µM [inhibitor, single point]"}, {"smiles": "CCOc1ccc(NS(=O)(=O)c2cc(C(=O)N3CCC3)ccc2Cl)cc1", "activity change, negative = inhibition": "inactive: 1.48%"}, {"smiles": "Cc1cccc(CN2CCN(C(=O)CCc3nnc(C4CCCCC4)o3)CC2)c1", "Potency": "inconclusive: 14.7 µM [inhibitor, partial curve, poor fit]"}, {"smiles": "CCN(CC)c1ccc(/C=N/NC(=O)c2ccc3nc[nH]c3c2)c(O)c1", "Potency": "inconclusive: 11.7 µM [inhibitor, partial curve]"}, {"smiles": "CCC(=O)c1c(O)cc(O)cc1O", "Potency": "inconclusive: 1.69 µM [inhibitor, full curve]"}, {"smiles": "CC(=O)NCCC(=O)N1CCCC(N2CCN(c3cccc(Cl)c3)CC2)C1", "note": "(stereo not given)", "Potency": "inconclusive: 18.5 µM [inhibitor, single point]"}, {"smiles": "COc1cc(CN2CCNC(=O)C2CC(=O)NC2CCC2)cc(OC)c1", "note": "(stereo not given)", "Potency": "inconclusive: 14.7 µM [inhibitor, single point]"}, {"smiles": "CCC(=O)Nc1ccc(NC(=S)NC(=O)c2cc3ccccc3o2)cc1", "Potency": "inconclusive: 18.5 µM [inhibitor, single point]"}]}]}
